Reference: paper PMC9586981
These are yes or no findings as the source states them, for the method shown. In cells and extracts the contact can be indirect. Here binding means that the protein was enriched with, or labelled near, the bait; the list need not be complete. A no says only that the protein was not detected with the bait.

Protein sequences, listed by entry. Tags and fused reporters are not part of them.
UniProt Q8IYS0: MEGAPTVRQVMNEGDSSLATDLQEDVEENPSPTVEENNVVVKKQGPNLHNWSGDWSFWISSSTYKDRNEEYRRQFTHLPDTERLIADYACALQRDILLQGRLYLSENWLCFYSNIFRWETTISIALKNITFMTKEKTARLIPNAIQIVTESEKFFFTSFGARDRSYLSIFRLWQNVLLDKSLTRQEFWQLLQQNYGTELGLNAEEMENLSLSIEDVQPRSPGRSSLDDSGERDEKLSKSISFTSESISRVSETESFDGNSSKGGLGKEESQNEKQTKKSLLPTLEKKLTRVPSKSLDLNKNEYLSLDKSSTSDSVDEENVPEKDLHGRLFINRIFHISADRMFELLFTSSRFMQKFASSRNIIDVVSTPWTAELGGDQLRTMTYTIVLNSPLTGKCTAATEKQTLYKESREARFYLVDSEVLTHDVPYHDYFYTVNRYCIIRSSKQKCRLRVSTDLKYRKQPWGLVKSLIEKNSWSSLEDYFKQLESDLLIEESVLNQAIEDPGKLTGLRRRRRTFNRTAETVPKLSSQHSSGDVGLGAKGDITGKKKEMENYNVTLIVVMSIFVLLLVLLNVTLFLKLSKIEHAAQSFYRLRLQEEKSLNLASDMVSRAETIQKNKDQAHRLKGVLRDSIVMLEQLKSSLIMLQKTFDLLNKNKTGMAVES
UniProt Q676U5: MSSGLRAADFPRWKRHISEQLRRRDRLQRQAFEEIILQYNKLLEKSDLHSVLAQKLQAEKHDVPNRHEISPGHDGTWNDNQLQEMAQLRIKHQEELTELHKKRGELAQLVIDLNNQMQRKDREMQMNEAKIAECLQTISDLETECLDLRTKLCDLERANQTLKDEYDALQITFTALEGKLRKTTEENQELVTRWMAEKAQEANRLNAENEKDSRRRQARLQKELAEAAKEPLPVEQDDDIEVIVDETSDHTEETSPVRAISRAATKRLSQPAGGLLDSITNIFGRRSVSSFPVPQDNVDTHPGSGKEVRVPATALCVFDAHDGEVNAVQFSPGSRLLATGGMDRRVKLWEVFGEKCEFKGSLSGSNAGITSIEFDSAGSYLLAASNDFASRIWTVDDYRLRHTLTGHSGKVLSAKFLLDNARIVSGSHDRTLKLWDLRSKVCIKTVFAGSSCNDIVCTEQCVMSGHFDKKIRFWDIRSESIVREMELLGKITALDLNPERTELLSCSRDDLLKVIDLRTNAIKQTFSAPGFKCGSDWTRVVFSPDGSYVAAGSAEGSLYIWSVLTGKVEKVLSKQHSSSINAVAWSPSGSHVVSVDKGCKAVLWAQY
UniProt Q14534: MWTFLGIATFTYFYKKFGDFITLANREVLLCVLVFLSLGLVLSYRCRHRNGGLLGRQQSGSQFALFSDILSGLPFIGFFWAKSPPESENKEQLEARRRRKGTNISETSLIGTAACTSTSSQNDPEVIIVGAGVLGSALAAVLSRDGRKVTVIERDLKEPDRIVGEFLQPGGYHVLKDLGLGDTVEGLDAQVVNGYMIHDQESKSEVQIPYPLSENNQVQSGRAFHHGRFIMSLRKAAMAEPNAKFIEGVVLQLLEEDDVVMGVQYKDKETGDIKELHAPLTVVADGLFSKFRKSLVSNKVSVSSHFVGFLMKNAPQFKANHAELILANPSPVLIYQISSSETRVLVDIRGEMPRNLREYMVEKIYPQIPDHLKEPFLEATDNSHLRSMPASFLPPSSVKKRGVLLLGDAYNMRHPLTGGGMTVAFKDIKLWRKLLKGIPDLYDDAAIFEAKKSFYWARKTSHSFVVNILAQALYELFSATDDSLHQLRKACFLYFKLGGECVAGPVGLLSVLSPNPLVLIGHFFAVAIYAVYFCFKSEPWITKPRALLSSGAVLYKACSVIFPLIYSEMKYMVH

Molecular target: GRAMD1C-EGFP (UniProt Q8IYS0)
Assay: affinity purification with mass spectrometry; EGFP-tagged bait immunopurified with EGFP-TRAP (Chromotek) from stably transfected U2OS cells lysed in NP-40 lysis buffer (150 mM, 1.0% NP-40, 50 mM Tris-HCl pH 8.0); copurified proteins identified by LC-MS/MS; interactome compared to that of EGFP

Substance | binding
ATG16L1 (from UniProt Q676U5 1-607) | no binding
SQLE (from UniProt Q14534 1-574) (enzyme) | binds
